Screen size: about 240,000 compounds; about 1,300 (0.54%) were called active. The inconclusive results got no clear call from the source; some entries with a clear call stand among them for comparison. The call rests on the fitted dose curve; in most records, active means well fitted inhibition curve with a large enough effect; inconclusive means small, poorly fitted or top-dose-only effect; inactive means flat fitted curve, though single readings scatter. Potencies of inconclusive entries are doubtful fits and often do not repeat. Some structures have more than one record in an assay (separate samples or runs), and their calls can disagree.
molecular target: ATP-dependent DNA helicase Q1 (Homo sapiens) (UniProt P46063); test: qHTS Assay for Inhibitors of RecQ-Like Dna Helicase 1 (RECQ1); settings: RECQ1 DNA unwinding, red fluorescence kinetic read; activity, negative = inhibition: at 57.3 µM (top of the series); series mostly up to 57.3 µM; further: nearly all actives have a fitted effect of over 30% in size;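 on activity, negative = inhibition: plate controls were vehicle for no effect and no enzyme for full effect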
Procedure, shortened: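 50 nM RECQ1T1 preincubated 15 min with compound in Tris pH 8.0 buffer with MgCl2, DTT, Tween-20 and 2.5 ug/ml poly(dI-dC); started with 200 nM TAMRA/BHQ-2 forked duplex and 2 mM ATP. Unwinding read as fluorescence (525/598 nm), two reads 2 h apart.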
Potency means the concentration at half of the fitted maximal effect.

The chains behind the UniProt entries cited, without tags or fusion partners. Where a name states a change or a piece, a line headed by the entry shows the natural chain unless it says otherwise.
UniProt P46063: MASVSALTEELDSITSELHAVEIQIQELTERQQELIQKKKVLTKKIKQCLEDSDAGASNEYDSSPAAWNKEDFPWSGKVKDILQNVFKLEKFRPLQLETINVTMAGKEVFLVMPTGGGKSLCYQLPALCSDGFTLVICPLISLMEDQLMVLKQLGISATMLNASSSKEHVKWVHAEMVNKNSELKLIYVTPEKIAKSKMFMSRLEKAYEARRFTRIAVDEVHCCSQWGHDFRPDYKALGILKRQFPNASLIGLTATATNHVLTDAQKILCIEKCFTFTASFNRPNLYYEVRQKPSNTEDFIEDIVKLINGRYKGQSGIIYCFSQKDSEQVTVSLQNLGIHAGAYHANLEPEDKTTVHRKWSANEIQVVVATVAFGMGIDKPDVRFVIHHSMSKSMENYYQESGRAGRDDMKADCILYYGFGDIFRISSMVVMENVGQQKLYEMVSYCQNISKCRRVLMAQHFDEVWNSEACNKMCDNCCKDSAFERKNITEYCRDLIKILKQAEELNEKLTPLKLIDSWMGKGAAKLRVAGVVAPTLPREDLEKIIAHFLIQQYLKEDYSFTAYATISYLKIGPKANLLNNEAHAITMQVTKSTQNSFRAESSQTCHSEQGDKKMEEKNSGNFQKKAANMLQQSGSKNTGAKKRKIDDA

SMILES | Potency | activity, negative = inhibition
COc1ccc(S(=O)(=O)Nc2ccccc2C(=O)Nc2nc(-c3ccc(F)cc3)cs2)cc1OC | inconclusive: 39.8 µM [inhibitor, single point] | 
Cc1cc(C)c(S(=O)(=O)Nc2ccc(O)cc2)cc1C | inactive | 
O=C(CN(Cc1cccs1)S(=O)(=O)c1ccc(S(=O)(=O)NC2CCCCC2)cc1)Nc1ccccc1 | inactive | 
CN(c1ccccc1)S(=O)(=O)c1ccc(Cl)c(C(=O)OCC(=O)NCc2ccco2)c1 | inconclusive: 39.8 µM [inhibitor, single point] | 
Cc1ccc(NC(=O)c2ccc(Cl)c(N3C(=O)C=CC3=O)c2)cc1 | inactive | 
Cc1cccc(/N=C/c2c(O)cc(C)oc2=O)n1 | active: 28.2 µM | 
O=C(COC(=O)c1cnccn1)Nc1ccc2c(c1)OCO2 | inconclusive: 39.8 µM [inhibitor, single point] | 
CC(=O)c1c(O)c(C)c(-c2ccccc2)n(-c2ccccc2)c1=O | inconclusive: 6.31 µM [inhibitor, single point] | 
COc1ccc(CNc2nc(NCc3ccc(OC)cc3)c3ncn(C(C)C)c3n2)cc1 | inactive | 
CC(C)C(=O)N1CCN(c2ccc([N+](=O)[O-])c(NC(C)c3ccccc3)c2)CC1 (stereo unspecified) | inconclusive: 25.1 µM [inhibitor, partial curve] | 
O=C(/C=C/c1ccc(O)c(O)c1)OC(Cc1ccc(O)c(O)c1)C(=O)O (stereo unspecified) | active: 12.6 µM | 
O=C(NCc1ccccc1)N1CCN(c2ccc(Cl)c(Cl)c2)CC1 | inconclusive: 39.8 µM [inhibitor, single point] | 
CC(=O)NN1C(=O)/C(=C/c2ccc(Br)o2)SC1=S | inconclusive: 35.5 µM [inhibitor, single point] | 
Cc1c(NC(=O)C2(c3ccc(Cl)cc3)CCCC2)c(=O)n(-c2ccccc2)n1C | inconclusive: 28.2 µM [inhibitor, single point] | 
S=c1[nH]c(-c2ccc(Br)cc2)cn1CCc1ccccc1 | inconclusive: 0.0316 µM [inhibitor, full curve, poor fit] | 
Cn1c(=O)c(Nc2ccc(Cl)cc2)c2c3c(cccc31)C(=O)c1ccccc1-2 | active: 28.2 µM | 
Cc1cn(-c2cc(C(=O)Nc3ccc(C)c(NC(=O)N4CCNC4=O)c3)cc(C(F)(F)F)c2)cn1 | inconclusive: 8.91 µM [inhibitor, single point] | 
CCC(=O)n1nc(-c2ccco2)nc1SCc1ccccc1 | inconclusive: 39.8 µM [inhibitor, single point] | 
COc1cccc(NC(=O)OCCN2CCN(Cc3ccccc3)CCC2=O)c1 | inconclusive: 0.794 µM [inhibitor, partial curve, poor fit] | 
O=C(NCCN1CCN(Cc2ccccc2)CC1)C1c2ccccc2C(=O)N2CCc3ccccc3C12 (stereo unspecified) | inconclusive: 0.282 µM [inhibitor, full curve] | 
Cc1ccc(S(=O)(=O)/N=C2/NC(=O)/C(=C\c3ccco3)S2)cc1 | inconclusive: 39.8 µM [inhibitor, single point] | 

Rewritten with tabs: part of the list above
SMILES	Potency	activity, negative = inhibition
O=C(COC(=O)c1cnccn1)Nc1ccc2c(c1)OCO2	inconclusive: 39.8 µM [inhibitor, single point]	
CC(=O)c1c(O)c(C)c(-c2ccccc2)n(-c2ccccc2)c1=O	inconclusive: 6.31 µM [inhibitor, single point]	
COc1ccc(CNc2nc(NCc3ccc(OC)cc3)c3ncn(C(C)C)c3n2)cc1	inactive	
CC(C)C(=O)N1CCN(c2ccc([N+](=O)[O-])c(NC(C)c3ccccc3)c2)CC1 (stereo unspecified)	inconclusive: 25.1 µM [inhibitor, partial curve]	
O=C(/C=C/c1ccc(O)c(O)c1)OC(Cc1ccc(O)c(O)c1)C(=O)O (stereo unspecified)	active: 12.6 µM	
O=C(NCc1ccccc1)N1CCN(c2ccc(Cl)c(Cl)c2)CC1	inconclusive: 39.8 µM [inhibitor, single point]	
CC(=O)NN1C(=O)/C(=C/c2ccc(Br)o2)SC1=S	inconclusive: 35.5 µM [inhibitor, single point]	
Cc1c(NC(=O)C2(c3ccc(Cl)cc3)CCCC2)c(=O)n(-c2ccccc2)n1C	inconclusive: 28.2 µM [inhibitor, single point]	
S=c1[nH]c(-c2ccc(Br)cc2)cn1CCc1ccccc1	inconclusive: 0.0316 µM [inhibitor, full curve, poor fit]	
Cn1c(=O)c(Nc2ccc(Cl)cc2)c2c3c(cccc31)C(=O)c1ccccc1-2	active: 28.2 µM	
Cc1cn(-c2cc(C(=O)Nc3ccc(C)c(NC(=O)N4CCNC4=O)c3)cc(C(F)(F)F)c2)cn1	inconclusive: 8.91 µM [inhibitor, single point]	

(listing goes on)

SMILES | Potency | activity, negative = inhibition
C/C(=N\OCc1nc2ccccc2c(=O)n1/N=C/c1cc(C)cc([N+](=O)[O-])c1O)c1ccccc1 | inconclusive: 8.91 µM [inhibitor, single point] | 
COc1cc(C(=O)Nc2nc3ccc(S(=O)(=O)N4CCOCC4)cc3s2)cc(OC)c1OC | inconclusive: 35.5 µM [inhibitor, single point] | 
COc1ccccc1NC(=O)C(=N\O)/C(C)=N/O | inactive | 
CCOC(=O)c1sc2nc(C)c([N+](=O)[O-])c(COC)c2c1N | inconclusive: 0.158 µM [inhibitor, partial curve, poor fit] | 
CCOc1ccc(CO/N=C/c2c(C)[nH]c(=O)[nH]c2=O)cc1 | inconclusive: 0.0224 µM [inhibitor, full curve, poor fit] | 
C=CCn1c(NC(=O)c2ccccc2Cl)c(C#N)c2nc3ccccc3nc21 | inconclusive: 39.8 µM [inhibitor, single point] | 
Cn1c(CN2CCCC2)nc2cc(NC(=O)Nc3ccccc3)ccc21 | inconclusive: 3.98 µM [inhibitor, partial curve] | 
COc1ccc(C2C(C#N)=C(N)Oc3n[nH]c(C)c32)cc1CN1CCN(c2ccc(F)cc2)CC1 (stereo unspecified) | inconclusive: 7.08 µM [inhibitor, single point] | 
CC(C)CN(C(=O)COC(=O)c1cc2c(s1)CCC2)C1CCS(=O)(=O)C1 (stereo unspecified) | inconclusive: 22.4 µM [inhibitor, single point] | 
O=C1CCCC1C(=O)Nc1ccc2ccccc2c1 (stereo unspecified) | inconclusive: 25.1 µM [inhibitor, single point] | 
O=C(O)c1cc(O)c2c(c1)[C@H]([C@H]1c3cc(C(=O)O)cc(O)c3C(=O)c3c(O[C@@H]4OC(CO)C(O)C(O)C4O)cccc31)c1cccc(O[C@@H]3OC(CO)C(O)C(O)C3O)c1C2=O (stereo partly specified) | active: 2 µM | 
O=C(COc1c(Cl)cccc1Cl)NN1C(=O)CSC1=S | inconclusive: 31.6 µM [inhibitor, single point] | 
Cc1ccc(C(C)C)c(OCCNC(=S)Nc2cccc3ccccc23)c1 |  | inconclusive: -33.4% [inhibitor]
O=C1c2oc3ccccc3c(=O)c2C(c2ccccn2)N1Cc1ccccc1 (stereo unspecified) | inconclusive: 0.224 µM [inhibitor, full curve] | 
CN(Cc1ccccc1)C(=O)CCNS(=O)(=O)c1ccc2c(c1)oc(=O)n2C | active: 35.5 µM | 
Cc1c(C(=O)NC(=S)Nc2ccc3c4c(cccc24)CC3)cccc1[N+](=O)[O-] | inconclusive: 0.891 µM [inhibitor, single point] | 
CCCn1c(CCC(=O)Nc2ccccc2Cc2ccccc2)nc2cc(S(=O)(=O)N3CCOCC3)ccc21 | inconclusive: 11.2 µM [inhibitor, partial curve] | 
COc1cc(/C=C2\SC(=S)N(Nc3ncc(C(F)(F)F)cc3Cl)C2=O)ccc1O | active: 28.2 µM | 
c1csc(-c2nc3ccccc3s2)c1 | inactive | 
CC(C)c1ccc(N2C(=O)/C(=C/N(C)C)SC2=S)cc1 | active: 31.6 µM | 
